Test results reported in the supplement of paper PMC12819154, “High-throughput peptide-centric local stability assay extends protein–ligand identification to membrane proteins, tissues and bacteria” (Nature Structural & Molecular Biology, 2025).
This is one part of the list. Most entries show no effect beyond the scatter of the controls.

Protein sequences, listed by entry. Tags and fused reporters are not part of them. Lines headed by an entry give the natural chain unless they say otherwise; changes in a name come on top.
UniProt Q56A06: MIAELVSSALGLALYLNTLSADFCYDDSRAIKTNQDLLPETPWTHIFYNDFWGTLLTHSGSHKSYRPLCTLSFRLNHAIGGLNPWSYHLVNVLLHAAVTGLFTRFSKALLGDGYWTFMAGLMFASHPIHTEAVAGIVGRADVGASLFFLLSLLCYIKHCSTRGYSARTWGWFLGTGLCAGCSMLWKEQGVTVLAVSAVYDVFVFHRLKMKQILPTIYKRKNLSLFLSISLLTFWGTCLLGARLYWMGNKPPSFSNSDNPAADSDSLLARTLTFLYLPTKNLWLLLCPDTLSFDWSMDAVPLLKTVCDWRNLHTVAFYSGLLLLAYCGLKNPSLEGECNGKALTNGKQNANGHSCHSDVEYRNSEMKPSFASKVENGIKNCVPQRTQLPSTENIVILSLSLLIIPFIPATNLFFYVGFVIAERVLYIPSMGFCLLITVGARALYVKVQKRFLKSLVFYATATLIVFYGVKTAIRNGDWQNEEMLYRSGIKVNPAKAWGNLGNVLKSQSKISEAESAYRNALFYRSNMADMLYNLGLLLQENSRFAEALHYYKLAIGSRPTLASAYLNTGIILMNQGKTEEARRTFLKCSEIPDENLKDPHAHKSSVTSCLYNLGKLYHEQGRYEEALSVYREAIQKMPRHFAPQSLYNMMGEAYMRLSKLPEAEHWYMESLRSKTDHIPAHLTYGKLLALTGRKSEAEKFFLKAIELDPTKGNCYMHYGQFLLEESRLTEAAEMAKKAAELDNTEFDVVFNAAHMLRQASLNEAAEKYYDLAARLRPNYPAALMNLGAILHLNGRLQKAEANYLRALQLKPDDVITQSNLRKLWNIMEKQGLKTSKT
UniProt Q4FZF3: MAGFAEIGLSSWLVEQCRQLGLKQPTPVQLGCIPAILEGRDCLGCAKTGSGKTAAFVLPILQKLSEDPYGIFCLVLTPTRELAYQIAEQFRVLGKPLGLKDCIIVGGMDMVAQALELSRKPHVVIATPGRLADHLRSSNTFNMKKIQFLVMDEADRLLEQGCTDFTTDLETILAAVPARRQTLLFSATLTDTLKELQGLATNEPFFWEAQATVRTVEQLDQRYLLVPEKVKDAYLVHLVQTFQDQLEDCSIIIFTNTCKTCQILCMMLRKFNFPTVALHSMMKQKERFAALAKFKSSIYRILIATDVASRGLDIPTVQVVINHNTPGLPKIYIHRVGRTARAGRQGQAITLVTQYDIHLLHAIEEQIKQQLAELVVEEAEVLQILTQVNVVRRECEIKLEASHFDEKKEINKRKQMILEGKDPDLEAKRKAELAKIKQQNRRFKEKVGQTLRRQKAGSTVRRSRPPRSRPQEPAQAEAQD
UniProt Q3UV55: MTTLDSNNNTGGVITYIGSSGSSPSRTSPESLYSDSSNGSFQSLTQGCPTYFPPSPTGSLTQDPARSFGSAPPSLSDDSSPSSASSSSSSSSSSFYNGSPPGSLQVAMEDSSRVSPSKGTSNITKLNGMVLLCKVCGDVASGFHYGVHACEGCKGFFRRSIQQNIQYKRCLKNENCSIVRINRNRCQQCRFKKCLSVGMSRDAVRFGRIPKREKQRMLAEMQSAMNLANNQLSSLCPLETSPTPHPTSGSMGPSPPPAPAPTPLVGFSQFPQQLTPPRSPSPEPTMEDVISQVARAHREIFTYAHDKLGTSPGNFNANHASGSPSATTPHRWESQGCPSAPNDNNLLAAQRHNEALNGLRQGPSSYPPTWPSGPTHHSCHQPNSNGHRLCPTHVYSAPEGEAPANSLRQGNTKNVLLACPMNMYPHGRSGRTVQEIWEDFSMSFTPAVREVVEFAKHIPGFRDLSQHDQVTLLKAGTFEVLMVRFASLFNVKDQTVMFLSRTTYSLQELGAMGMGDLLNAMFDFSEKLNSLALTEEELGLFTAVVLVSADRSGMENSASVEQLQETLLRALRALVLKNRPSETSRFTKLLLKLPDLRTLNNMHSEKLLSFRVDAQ
UniProt Q3UHX9: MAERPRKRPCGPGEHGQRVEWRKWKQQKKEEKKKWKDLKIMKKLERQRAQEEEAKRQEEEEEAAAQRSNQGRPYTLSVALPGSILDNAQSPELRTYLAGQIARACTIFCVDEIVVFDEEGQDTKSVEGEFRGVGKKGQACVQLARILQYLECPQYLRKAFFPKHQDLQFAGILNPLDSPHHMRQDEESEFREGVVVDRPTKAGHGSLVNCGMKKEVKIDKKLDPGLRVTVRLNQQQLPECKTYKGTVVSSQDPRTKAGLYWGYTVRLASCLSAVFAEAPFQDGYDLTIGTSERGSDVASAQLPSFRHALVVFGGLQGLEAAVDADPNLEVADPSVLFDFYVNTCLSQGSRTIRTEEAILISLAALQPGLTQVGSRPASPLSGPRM
UniProt Q3UTZ3: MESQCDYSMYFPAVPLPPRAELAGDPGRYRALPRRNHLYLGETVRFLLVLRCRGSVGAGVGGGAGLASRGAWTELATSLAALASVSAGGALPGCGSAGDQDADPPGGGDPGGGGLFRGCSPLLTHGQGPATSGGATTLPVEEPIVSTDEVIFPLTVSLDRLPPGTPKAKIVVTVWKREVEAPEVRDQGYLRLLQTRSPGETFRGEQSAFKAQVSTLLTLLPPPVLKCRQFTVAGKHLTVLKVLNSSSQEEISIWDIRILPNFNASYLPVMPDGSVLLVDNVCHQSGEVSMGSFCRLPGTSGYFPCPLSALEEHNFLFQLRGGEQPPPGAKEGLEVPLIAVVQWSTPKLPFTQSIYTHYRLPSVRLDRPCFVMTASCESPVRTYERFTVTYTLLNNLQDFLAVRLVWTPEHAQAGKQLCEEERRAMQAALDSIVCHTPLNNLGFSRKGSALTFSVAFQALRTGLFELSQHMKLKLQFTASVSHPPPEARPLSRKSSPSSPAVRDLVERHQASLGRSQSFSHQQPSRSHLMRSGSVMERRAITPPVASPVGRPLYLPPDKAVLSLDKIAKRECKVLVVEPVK
UniProt Q3UF25: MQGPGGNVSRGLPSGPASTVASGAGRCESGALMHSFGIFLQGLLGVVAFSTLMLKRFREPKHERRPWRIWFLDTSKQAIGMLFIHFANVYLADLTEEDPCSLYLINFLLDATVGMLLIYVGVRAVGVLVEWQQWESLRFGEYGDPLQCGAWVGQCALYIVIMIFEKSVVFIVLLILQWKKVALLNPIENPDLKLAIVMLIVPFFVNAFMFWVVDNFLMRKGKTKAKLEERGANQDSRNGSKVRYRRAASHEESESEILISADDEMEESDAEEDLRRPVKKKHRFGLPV
UniProt Q3ZK22: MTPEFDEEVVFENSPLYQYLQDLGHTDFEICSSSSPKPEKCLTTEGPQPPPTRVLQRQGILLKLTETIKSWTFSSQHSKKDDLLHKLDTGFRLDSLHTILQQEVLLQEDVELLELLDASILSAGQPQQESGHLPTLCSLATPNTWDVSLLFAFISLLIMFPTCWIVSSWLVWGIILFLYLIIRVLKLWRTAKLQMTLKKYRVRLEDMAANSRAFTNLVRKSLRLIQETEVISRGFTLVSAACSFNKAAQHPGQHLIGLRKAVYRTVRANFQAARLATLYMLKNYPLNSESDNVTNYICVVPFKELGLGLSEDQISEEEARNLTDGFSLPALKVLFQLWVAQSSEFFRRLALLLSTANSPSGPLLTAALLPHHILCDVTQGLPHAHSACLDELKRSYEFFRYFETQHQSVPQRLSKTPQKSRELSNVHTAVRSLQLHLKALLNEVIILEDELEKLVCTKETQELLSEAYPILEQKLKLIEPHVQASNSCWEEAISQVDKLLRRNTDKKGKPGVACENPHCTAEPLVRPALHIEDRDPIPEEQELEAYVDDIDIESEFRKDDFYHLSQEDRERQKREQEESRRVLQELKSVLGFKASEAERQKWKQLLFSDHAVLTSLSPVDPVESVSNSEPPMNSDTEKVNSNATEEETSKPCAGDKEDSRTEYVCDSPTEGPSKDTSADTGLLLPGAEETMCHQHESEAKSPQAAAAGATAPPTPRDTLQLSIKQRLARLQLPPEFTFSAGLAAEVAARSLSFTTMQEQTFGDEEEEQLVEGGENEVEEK
UniProt Q3U9F6: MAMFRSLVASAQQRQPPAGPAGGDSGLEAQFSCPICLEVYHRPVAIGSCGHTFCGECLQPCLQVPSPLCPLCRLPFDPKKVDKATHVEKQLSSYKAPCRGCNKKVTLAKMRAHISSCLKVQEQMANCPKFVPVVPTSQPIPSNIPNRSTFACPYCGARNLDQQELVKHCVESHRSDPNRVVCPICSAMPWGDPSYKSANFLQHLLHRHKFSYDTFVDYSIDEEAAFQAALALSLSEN
UniProt Q3U7R1: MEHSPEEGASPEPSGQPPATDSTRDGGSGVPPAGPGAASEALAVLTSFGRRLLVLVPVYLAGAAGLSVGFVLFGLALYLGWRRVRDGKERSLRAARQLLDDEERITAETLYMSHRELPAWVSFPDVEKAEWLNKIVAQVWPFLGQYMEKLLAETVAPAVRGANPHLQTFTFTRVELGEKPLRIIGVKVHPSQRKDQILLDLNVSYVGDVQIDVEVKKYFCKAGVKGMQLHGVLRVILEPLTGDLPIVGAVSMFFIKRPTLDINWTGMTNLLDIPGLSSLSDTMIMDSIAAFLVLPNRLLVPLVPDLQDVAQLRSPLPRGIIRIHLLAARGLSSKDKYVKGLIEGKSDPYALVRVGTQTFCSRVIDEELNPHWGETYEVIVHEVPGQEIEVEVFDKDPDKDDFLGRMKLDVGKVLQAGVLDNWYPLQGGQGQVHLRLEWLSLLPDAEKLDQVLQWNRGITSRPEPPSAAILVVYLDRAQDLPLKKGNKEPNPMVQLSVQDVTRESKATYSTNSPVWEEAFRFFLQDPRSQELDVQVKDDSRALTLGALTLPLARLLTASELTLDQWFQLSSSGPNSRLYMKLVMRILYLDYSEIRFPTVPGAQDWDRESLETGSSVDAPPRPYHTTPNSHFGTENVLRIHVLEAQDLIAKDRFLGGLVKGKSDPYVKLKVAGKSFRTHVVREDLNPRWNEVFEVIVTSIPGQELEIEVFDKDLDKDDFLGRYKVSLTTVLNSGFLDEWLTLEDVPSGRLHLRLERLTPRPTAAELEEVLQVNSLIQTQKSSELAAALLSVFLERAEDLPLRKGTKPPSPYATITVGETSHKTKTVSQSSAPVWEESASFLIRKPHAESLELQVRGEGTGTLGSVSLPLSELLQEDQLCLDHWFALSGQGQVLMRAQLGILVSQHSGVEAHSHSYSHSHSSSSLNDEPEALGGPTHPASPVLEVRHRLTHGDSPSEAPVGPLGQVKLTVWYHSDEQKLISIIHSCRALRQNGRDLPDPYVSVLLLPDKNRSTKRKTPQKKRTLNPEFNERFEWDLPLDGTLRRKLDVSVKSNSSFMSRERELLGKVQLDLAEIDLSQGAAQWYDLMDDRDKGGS
UniProt Q3UJZ3: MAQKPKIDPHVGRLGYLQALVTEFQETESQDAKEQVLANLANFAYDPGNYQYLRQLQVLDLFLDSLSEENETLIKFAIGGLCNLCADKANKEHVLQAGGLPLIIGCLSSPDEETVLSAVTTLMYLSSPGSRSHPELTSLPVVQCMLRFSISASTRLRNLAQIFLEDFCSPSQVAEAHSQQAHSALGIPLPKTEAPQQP
UniProt Q3UNA4: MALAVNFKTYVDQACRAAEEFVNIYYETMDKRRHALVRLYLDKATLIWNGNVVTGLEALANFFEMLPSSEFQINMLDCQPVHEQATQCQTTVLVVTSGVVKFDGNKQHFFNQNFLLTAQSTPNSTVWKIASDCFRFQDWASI
UniProt Q569Z6: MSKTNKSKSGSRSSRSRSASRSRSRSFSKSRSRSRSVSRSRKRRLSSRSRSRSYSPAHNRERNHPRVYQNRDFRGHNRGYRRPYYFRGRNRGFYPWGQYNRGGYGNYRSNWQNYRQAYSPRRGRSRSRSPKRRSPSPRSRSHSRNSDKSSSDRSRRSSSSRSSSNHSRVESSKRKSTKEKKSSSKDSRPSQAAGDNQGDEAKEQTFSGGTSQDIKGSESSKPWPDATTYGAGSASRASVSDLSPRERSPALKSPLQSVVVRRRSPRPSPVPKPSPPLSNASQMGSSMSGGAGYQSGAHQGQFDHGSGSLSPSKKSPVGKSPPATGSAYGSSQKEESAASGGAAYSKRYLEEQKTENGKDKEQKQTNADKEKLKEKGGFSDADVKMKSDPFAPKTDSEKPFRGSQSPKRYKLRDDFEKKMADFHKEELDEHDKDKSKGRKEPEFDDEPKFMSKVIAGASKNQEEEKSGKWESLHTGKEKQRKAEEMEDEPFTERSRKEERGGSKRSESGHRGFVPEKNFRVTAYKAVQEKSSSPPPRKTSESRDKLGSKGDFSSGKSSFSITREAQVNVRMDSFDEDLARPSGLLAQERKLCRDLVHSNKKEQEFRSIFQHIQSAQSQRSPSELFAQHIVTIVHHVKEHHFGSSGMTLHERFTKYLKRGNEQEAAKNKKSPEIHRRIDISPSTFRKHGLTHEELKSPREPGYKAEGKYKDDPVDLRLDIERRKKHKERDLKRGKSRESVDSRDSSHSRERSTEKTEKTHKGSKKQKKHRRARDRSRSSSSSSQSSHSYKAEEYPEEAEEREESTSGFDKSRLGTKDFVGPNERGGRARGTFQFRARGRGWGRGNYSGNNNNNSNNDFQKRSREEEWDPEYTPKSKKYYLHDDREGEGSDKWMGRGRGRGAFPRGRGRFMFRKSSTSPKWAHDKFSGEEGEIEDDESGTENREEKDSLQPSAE

Compound: CN[C@@H]1C[C@H]2O[C@@](C)([C@@H]1OC)n1c3ccccc3c3c4c(c5c6ccccc6n2c5c31)C(=O)NC4 [staurosporine]
Experiment: log2 fold change of tryptic peptide abundance, ligand vs vehicle (limited proteolysis) (log2 ratio); higher = more trypsin-susceptible (destabilized)
Conditions: ligand concentration: 20 uM; sample: mouse liver crude lysate; replicate design: treated separately

| Target | log2 fold change |
| --- | --- |
| UniProt Q3UGR5 (peptide sequence: TFFLEALR, peptide start residue: 183) | -0.401 |
| UniProt Q56A06 (peptide sequence: NSEMKPSFASK, peptide start residue: 362) | -0.0762 |
| UniProt Q4FZF3 (peptide sequence: ILIATDVASR, peptide start residue: 301) | 0.395 |
| UniProt Q3UUQ7 (peptide sequence: DSAVQSLR, peptide start residue: 796) | 0.305 |
| UniProt Q3UV55 (peptide sequence: NVLLACPMNMYPHGR, peptide start residue: 414) | 0.181 |
| UniProt Q3UHX9 (peptide sequence: TYLAGQIAR, peptide start residue: 95) | -0.285 |
| UniProt Q3UTZ3 (peptide sequence: AITPPVASPVGR, peptide start residue: 539) | 0.187 |
| UniProt Q3UF25 (peptide sequence: KHRFGLPV, peptide start residue: 281) | 0.00263 |
| UniProt Q3ULW8 (peptide sequence: MNHFTCLEDAK, peptide start residue: 109) | -0.482 |
| UniProt Q499D0 (peptide sequence: DALGDSGYASQHK, peptide start residue: 374) | 0.276 |
| UniProt Q3U829 (peptide sequence: LGEDPGSER, peptide start residue: 356) | 0.362 |
| UniProt Q3UQ44 (peptide sequence: VNVNLLIYLLNKK, peptide start residue: 1559) | 0.823 |
| UniProt Q3UN02 (peptide sequence: SVIIMNHR, peptide start residue: 79) | 0.273 |
| UniProt Q3UY96 (peptide sequence: KPVGGSKMEK, peptide start residue: 473) | 0.098 |
| UniProt Q4VAA2 (peptide sequence: VQAMQISEK, peptide start residue: 125) | 0.119 |
| UniProt Q3USJ8 (peptide sequence: AAPPPPTQNHR, peptide start residue: 716) | -0.4 |

Copied from above for reference:

| Target | log2 fold change |
| --- | --- |
| UniProt Q3UN02 (peptide sequence: SVIIMNHR, peptide start residue: 79) | 0.273 |
| UniProt Q3UY96 (peptide sequence: KPVGGSKMEK, peptide start residue: 473) | 0.098 |

Continuation.

| Target | log2 fold change |
| --- | --- |
| UniProt Q3ZK22 (peptide sequence: KDDFYHLSQEDR, peptide start residue: 558) | -0.251 |
| UniProt Q3UJD6 (peptide sequence: ASHSEHHPDLGPAAEAAASQASR, peptide start residue: 1266) | -0.348 |
| UniProt Q3U9F6 (peptide sequence: VQEQMANCPK, peptide start residue: 120) | 0.245 |
| UniProt Q3UXL4 (peptide sequence: VGQLQQALR, peptide start residue: 31) | -0.285 |
| UniProt Q505F5 (peptide sequence: DVRPYIVGAIVR, peptide start residue: 330) | 0.14 |
| UniProt Q3UIU2 (peptide sequence: SGYTPDEKLR, peptide start residue: 2) | -0.153 |
| UniProt Q3U7R1 (peptide sequence: GTKPPSPYATITVGETSHK, peptide start residue: 802) | 0.385 |
| UniProt Q3UHU5 (peptide sequence: RSGVVPGAK, peptide start residue: 97) | -0.00913 |
| UniProt Q3U3N6 (peptide sequence: LPCHSSQDLQTDLQK, peptide start residue: 541) | 0.349 |
| UniProt Q3UJZ3 (peptide sequence: FSISASTR, peptide start residue: 148) | 0.401 |
| UniProt Q3UQ28 (peptide sequence: AEGNPKPEIIWLR, peptide start residue: 266) | 0.164 |
| UniProt Q3UNA4 (peptide sequence: TYVDQACR, peptide start residue: 9) | 0.0728 |
| UniProt Q3UPR7 (peptide sequence: AKDFVFALLGLVHR, peptide start residue: 63) | -0.413 |
| UniProt Q3UR85 (peptide sequence: AGSVPHKKR, peptide start residue: 734) | -0.209 |
| UniProt Q569Z6 (peptide sequence: TDSEKPFR, peptide start residue: 394) | -0.156 |
